# Measurements taken from PMC10864387.
# By UniProt entry, the sequences of proteins in these tests, tags left out.
# UniProt P42224: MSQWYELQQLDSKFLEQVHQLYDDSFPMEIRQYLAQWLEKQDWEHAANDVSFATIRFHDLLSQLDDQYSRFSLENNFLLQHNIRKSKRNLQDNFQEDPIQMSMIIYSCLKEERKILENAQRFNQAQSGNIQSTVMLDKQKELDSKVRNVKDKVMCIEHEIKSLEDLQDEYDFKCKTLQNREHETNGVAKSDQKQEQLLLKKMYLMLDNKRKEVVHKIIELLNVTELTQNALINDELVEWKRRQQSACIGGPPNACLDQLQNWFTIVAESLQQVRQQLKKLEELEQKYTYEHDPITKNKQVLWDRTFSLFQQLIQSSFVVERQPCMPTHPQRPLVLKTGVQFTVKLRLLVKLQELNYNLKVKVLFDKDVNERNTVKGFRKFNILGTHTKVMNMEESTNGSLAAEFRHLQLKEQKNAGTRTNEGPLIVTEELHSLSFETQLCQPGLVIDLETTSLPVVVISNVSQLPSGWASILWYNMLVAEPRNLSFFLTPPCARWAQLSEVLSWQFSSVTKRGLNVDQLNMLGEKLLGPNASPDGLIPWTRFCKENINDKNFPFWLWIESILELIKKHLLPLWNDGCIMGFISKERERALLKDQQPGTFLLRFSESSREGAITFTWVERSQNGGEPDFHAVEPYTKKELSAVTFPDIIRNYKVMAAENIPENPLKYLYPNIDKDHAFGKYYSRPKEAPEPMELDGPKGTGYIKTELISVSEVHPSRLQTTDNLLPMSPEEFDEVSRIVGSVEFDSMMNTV
# These are yes or no findings as the source states them, for the method shown. In cells and extracts the contact can be indirect. These calls come from enrichment with a bait or labelling near it, and not all partners need be listed. Sequences can lack the tags named with a protein.
# Molecular target: T1, Flag-tagged HKDC1 (human) (UniProt Q2TB90)
# T1 sequence: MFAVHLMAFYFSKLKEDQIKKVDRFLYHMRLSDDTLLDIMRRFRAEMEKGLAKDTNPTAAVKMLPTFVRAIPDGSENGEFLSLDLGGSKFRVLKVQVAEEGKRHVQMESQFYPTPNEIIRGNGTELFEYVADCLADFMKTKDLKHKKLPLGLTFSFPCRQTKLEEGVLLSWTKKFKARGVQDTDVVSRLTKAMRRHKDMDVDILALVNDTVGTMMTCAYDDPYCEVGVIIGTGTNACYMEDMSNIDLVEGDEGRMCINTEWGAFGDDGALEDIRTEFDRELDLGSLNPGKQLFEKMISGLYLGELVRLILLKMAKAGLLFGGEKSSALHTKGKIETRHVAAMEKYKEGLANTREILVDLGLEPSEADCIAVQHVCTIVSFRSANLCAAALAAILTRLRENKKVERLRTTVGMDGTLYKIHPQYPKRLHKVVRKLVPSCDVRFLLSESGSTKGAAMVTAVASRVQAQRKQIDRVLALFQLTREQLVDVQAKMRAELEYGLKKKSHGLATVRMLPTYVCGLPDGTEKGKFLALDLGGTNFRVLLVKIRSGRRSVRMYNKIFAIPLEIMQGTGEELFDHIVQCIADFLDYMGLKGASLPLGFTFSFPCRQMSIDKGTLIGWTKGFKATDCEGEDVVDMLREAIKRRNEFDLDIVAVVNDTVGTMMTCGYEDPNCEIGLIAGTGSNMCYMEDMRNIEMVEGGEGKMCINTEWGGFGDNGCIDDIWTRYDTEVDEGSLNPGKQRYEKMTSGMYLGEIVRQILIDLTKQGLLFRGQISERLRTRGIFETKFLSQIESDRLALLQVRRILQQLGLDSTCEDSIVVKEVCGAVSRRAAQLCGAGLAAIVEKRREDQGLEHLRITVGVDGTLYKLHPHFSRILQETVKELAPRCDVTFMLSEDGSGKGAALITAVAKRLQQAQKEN
# Experiment: affinity purification with mass spectrometry; IP with antibody targeting Flag-tagged HKDC1 in Hep3B cells, followed by MS identification of candidate partners
substance,measurement,value
"STAT1, endogenous (from UniProt P42224 1-750)",binding,binds
